Among the data in publication PMC6323126 are binding values, retold here.

Protein sequences, listed by entry. Tags and fused reporters are not part of them. Lines headed by an entry give the natural chain unless they say otherwise; changes in a name come on top.
UniProt Q14BN4: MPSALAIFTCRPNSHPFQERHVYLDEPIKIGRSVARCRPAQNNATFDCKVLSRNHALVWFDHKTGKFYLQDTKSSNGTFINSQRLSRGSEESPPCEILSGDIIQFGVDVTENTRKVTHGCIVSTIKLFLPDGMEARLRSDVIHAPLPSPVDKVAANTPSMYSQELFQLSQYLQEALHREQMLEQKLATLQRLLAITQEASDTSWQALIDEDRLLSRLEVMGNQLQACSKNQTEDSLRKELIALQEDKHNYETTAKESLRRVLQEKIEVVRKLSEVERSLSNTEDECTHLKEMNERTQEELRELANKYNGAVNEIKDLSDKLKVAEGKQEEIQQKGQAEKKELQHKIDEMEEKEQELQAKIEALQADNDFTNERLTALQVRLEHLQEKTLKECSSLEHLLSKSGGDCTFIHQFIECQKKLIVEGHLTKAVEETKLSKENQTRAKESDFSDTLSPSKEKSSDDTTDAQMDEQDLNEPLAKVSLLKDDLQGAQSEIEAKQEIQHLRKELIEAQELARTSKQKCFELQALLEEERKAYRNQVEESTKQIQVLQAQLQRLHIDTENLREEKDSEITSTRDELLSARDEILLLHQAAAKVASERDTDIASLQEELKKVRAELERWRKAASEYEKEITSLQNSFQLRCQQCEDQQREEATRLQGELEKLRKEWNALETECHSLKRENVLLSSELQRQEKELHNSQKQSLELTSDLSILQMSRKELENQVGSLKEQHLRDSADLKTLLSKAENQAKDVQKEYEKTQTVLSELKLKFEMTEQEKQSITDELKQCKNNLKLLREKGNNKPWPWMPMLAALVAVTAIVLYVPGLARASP

The assay addresses first coiled-coil (CC1) of SLMAP (recombinant, Fig. 7d) (human) (UniProt Q14BN4). Put plainly: pull-down; MBP pulldown: MBP-tagged protein, partner and amylose resin mixed at 4 °C for 1 h in 20 mM HEPES (pH 7.5), 100 mM NaCl; eluted with 20 mM maltose; SDS-PAGE, Coomassie staining; both purified.

Results are given in words; binding and its absence hold for the method and conditions named. Binding calls can cover weak binding; strength is not graded here.

B1: SIKE1 (recombinant, limits not stated) (protein, UniProt Q9BRV8 1-207)
chain: MSCTIEKILTDAKTLLERLREHDAAAESLVDQSAALHRRVAAMREAGTALPDQYQEDASDMKDMSKYKPHILLSQENTQIRDLQQENRELWISLEEHQDALELIMSKYRKQMLQLMVAKKAVDAEPVLKAHQSHSAEIESQIDRICEMGEVMRKAVQVDDDQFCKIQEKLAQLELENKELRELLSISSESLQARKENSMDTASQAIK
Regarding B1, the binding entry is “binds”.
